Data: the supplement of paper PMC12823440, “Inhibitors supercharge kinase turnover through native proteolytic circuits” (Nature, 2025)
Structures can show the parent of a compound that is named as a salt. The list shows a part of the results. Hit calls seldom repeat between salt and free forms of one compound.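 Kinases were expressed as nanoluciferase fusions in K562 cells and luminescence was read every 4 h between 2 and 18 h as percent of control, DMSO set to 100% and a positive control to 0%. A time point counts as decreased when the signal drops significantly (2 sigma). The hit call is the authors' own, does not follow from the count of time points alone, and its rule is not shown.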

By UniProt entry, the sequences of proteins in these tests, tags left out.
UniProt Q05397, whole entry, looked up: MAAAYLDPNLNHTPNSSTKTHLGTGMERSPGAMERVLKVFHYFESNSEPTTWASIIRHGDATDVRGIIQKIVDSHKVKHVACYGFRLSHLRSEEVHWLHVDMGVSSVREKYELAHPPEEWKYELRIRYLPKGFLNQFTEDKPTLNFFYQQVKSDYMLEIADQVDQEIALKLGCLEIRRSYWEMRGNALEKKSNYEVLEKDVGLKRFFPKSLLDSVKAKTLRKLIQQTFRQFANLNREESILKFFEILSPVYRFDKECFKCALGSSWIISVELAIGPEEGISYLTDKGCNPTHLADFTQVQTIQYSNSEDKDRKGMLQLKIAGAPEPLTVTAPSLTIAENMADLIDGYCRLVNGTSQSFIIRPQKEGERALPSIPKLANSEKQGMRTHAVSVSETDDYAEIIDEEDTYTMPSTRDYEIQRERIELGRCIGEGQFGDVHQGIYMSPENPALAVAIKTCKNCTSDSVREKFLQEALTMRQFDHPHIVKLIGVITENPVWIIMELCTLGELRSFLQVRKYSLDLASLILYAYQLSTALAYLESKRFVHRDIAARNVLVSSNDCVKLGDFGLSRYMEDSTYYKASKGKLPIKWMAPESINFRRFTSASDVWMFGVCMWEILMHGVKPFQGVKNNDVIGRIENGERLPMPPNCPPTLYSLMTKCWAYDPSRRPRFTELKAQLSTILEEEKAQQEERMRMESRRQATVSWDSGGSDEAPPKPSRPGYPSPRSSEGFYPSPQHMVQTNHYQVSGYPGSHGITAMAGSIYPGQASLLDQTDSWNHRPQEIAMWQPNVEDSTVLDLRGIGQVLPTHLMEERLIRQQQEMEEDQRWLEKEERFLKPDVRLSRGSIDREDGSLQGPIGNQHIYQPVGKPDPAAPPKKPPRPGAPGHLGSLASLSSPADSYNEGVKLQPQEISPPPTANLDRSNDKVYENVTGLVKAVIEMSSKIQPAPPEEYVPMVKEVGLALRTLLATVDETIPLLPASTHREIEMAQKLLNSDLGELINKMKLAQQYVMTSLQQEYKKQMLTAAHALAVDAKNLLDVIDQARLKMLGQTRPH
UniProt Q14289, whole entry, looked up: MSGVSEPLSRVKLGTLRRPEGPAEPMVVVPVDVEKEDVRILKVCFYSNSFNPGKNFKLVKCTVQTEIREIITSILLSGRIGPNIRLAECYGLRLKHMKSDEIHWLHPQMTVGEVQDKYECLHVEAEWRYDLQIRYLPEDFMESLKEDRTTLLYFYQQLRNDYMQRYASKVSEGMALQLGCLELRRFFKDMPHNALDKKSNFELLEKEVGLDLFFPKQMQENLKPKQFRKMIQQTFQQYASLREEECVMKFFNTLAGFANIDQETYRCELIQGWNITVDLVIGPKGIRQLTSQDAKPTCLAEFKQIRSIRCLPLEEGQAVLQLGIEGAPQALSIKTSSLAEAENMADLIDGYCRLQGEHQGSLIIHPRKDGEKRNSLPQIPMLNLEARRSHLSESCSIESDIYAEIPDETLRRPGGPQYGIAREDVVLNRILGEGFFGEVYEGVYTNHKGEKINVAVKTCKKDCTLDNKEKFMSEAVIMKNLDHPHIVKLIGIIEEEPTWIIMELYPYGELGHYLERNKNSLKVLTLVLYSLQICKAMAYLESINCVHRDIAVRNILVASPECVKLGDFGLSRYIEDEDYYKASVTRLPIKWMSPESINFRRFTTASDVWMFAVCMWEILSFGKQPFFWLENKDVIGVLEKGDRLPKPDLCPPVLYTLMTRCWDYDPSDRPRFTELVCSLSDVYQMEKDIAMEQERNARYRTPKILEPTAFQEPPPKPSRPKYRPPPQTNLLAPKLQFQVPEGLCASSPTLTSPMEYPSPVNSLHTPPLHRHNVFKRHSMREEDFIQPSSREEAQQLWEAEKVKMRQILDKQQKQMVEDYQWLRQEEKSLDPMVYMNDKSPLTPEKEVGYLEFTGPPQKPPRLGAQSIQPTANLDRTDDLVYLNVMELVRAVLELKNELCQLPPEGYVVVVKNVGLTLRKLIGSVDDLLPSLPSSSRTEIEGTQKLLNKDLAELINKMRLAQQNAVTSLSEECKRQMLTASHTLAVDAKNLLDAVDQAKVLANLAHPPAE

Target: PTK2 (UniProt Q05397)
Assay: kinase-Nluc reporter destabilization hit call (1 = scored as downregulated) (binary); higher = compound decreases kinase abundance
Conditions: K562; 2-18 h

Row | SMILES | kinase-Nluc reporter destabilization hit call
1 | Cc1cccc(-c2[nH]c(C(C)(C)C)nc2-c2ccc3c(c2)OCO3)n1 (2.5 µM) | inactive: 0
2 | Cc1cccc(Cn2nc(C)c3c(NC(=O)c4csc5c(N)ncnc45)cccc32)n1 (10 µM) | inactive: 0
3 | CC[C@@H]1CN(C(=O)NCC(F)(F)F)C[C@@H]1c1cnc2cnc3[nH]ccc3n12 [Upadacitinib] (10 µM) | inactive: 0
4 | CNS(=O)(=O)C[C@H]1CC[C@H](N(C)c2[nH]cnc3nccc2-3)CC1 [Oclacitinib (maleate)] (10 µM) | inactive: 0
5 | COc1cc(-c2cnc(N)c(-c3ccc(NC(=O)c4cn(CC5CCOCC5)cc(-c5ccc(C)cn5)c4=O)cc3F)c2)ccc1OC[C@H]1COCCO1 [DS-1205b (free base)] (10 µM) | inactive: 0

Target: PTK2B (UniProt Q14289)
Assay: as above
Conditions: K562; 2-18 h

Row | SMILES | kinase-Nluc reporter destabilization hit call
6 | C=CC(=O)N1CCC[C@@H](n2c(=O)n(-c3ccc(Oc4ccccc4)cc3)c3c(N)nccc32)C1 [Tolebrutinib] (10 µM) | inactive: 0
7 | C[C@]1(O)C[C@@](N)(c2ccc(-c3nc4n(c3-c3ccccc3)COc3ccncc3-4)cc2)C1 [TAS-117 (hydrochloride)] (10 µM) | inactive: 0
8 | CCOC(=O)C1=C[C@]2(CC)CCCN3CCc4c(n1c1ccccc41)[C@@H]32 [Vinpocetine] (10 µM) | inactive: 0
9 | CC(C)(C)NS(=O)(=O)c1cncc(-c2cc(F)c3nc(N)nn3c2)c1 (10 µM) | inactive: 0
10 | CC(C)(C)c1ccc(C(=O)Nc2cn3cc(-n4ccnc4)ccc3n2)cc1 (10 µM) | inactive: 0
11 | Cc1nc(NC(=O)N2CCC[C@H]2C(N)=O)sc1-c1csc(C(C)(C)C)n1 (10 µM) | inactive: 0
12 | N#Cc1cn([C@@H]2O[C@H](CO)[C@@H](O)[C@H]2O)c2nc[nH]c(=O)c12 [Jaspamycin] (10 µM) | inactive: 0
13 | Cc1ccc(-c2csc(Cn3nc(CC4OCCCO4)c4ccccc4c3=O)n2)cc1 (10 µM) | inactive: 0
14 | CNC(=O)c1c(C)oc2cc(Oc3ncnc4cc(OC)c(OC)cc34)ccc12 [Fruquintinib] (10 µM) | inactive: 0
15 | O=S(=O)(N=Cc1c(O)ccc2ccccc12)c1cccs1 (10 µM) | inactive: 0
16 | NC(=O)c1cccc2c(N[C@H](CN3CCC3)c3ccc(Cl)c(C(F)(F)F)c3)ncnc12 (10 µM) | inactive: 0
17 | CN1CCC(c2ccccc2CC(C)(C)Nc2nc(N3CCOCC3)nc(-n3c(S(C)(=O)=O)nc4ccccc43)n2)CC1 (10 µM) | inactive: 0
18 | O=c1ccc2cc(O)c(O)cc2o1 [Esculetin] (10 µM) | inactive: 0
19 | O=C(Nc1nc2cccc(-c3ccc(CN4CCS(=O)(=O)CC4)cc3)n2n1)C1CC1 [Filgotinib] (2.5 µM) | inactive: 0
20 | CC(C)(O)c1cc2nc(-c3cnc(N)nc3)nc(N3CCOCC3)c2s1 (2.5 µM) | inactive: 0
21 | Cn1cc(-c2ccc3ncc(Cc4ccc5ncccc5c4)n3n2)cn1 (10 µM) | inactive: 0
22 | CC(=O)c1cc(O)ccc1O [2,5-Dihydroxyacetophenone] (10 µM) | inactive: 0
23 | COc1ccc(COc2cc3oc(=O)c4cc(C(C)O)ccc4c3cc2OC)cc1 (stereo not drawn) [Palomid 529] (2.5 µM) | inactive: 0
24 | O=C(CC(c1ccccc1)C(C(=O)O)C(=O)O)c1ccc(C(F)(F)F)cc1 (stereo not drawn) (10 µM) | inactive: 0

Row | SMILES | kinase-Nluc reporter destabilization hit call
25 | CC(C)[C@H](CO)Nc1nc(Nc2ccc(C(=O)O)c(Cl)c2)c2ncn(C(C)C)c2n1 [Purvalanol B] (10 µM) | inactive: 0
26 | COc1cc2nccc(Oc3ccc(NC(=O)Nc4ccc(F)cc4F)c(F)c3)c2cc1OC (10 µM) | inactive: 0
27 | N#C/C(=C\c1ccc[nH]1)c1ccc(Cl)c(Cl)c1 (2.5 µM) | inactive: 0
28 | O=c1cc(-c2ccc(O)cc2)oc2cc(O)c(O)c(O)c12 [Scutellarein] (10 µM) | inactive: 0
29 | CC(C)n1nc(C#Cc2ccccc2)c2c(N)ncnc21 (10 µM) | inactive: 0
30 | O=C(N=c1sccn1Cc1ccccc1)c1c[nH]c2ncccc12 (10 µM) | inactive: 0
31 | CC(C)=C/C=C1\O[C@@H]2CC(C)=CC(=O)[C@@H]2[C@]1(C)O [Bisabolangelone] (10 µM) | inactive: 0
32 | COc1ccc(C2CC(c3ccc(Cl)cc3)=NN2c2nc(-c3ccncc3)cs2)cc1 (stereo not drawn) [mTOR inhibitor-8] (10 µM) | inactive: 0
33 | Cc1cc(F)c(Nc2ncnc3cc(OCc4ccccc4)ccc23)cc1O (10 µM) | inactive: 0
34 | CNCCOc1ccccc1C(C)(C)Nc1nccn(-c2cc(C(=O)NC3CC3)ccc2C)c1=O [p38α inhibitor 2] (10 µM) | inactive: 0
35 | CCn1c(-c2nonc2N)nc2c(C#CCO)ncc(OCCCN)c21 [AKT Kinase Inhibitor] (10 µM) | inactive: 0
36 | NC(=O)c1nc(-c2c(F)cccc2Cl)oc1Nc1ccc(C(=O)N2CCOCC2)cc1 (10 µM) | inactive: 0
37 | O=C(NCc1cccc(O)c1)c1cc2cc(F)ccc2[nH]1 (10 µM) | inactive: 0
38 | Cc1nc(Nc2ncc(C(=O)Nc3c(C)cccc3Cl)s2)cc(N2CCN(C(=O)CCCCCCC(=O)N[C@H](C(=O)N3C[C@H](O)C[C@H]3C(=O)NCc3ccc(-c4scnc4C)cc3)C(C)(C)C)CC2)n1 (2.5 µM) | inactive: 0
39 | Cc1cccc(-c2[nH]c(C(C)(C)C)nc2-c2ccc3c(c2)OCO3)n1 (2.5 µM) | inactive: 0
40 | Cc1cccc(Cn2nc(C)c3c(NC(=O)c4csc5c(N)ncnc45)cccc32)n1 (10 µM) | inactive: 0
41 | CC[C@@H]1CN(C(=O)NCC(F)(F)F)C[C@@H]1c1cnc2cnc3[nH]ccc3n12 [Upadacitinib] (10 µM) | inactive: 0
42 | CNS(=O)(=O)C[C@H]1CC[C@H](N(C)c2[nH]cnc3nccc2-3)CC1 [Oclacitinib (maleate)] (10 µM) | inactive: 0
43 | COc1cc(-c2cnc(N)c(-c3ccc(NC(=O)c4cn(CC5CCOCC5)cc(-c5ccc(C)cn5)c4=O)cc3F)c2)ccc1OC[C@H]1COCCO1 [DS-1205b (free base)] (10 µM) | inactive: 0
